# Screening data, single-dose tests

By UniProt entry, the sequences of proteins in these tests, tags left out. Residues count along the entry.
UniProt A4I591, 1-473: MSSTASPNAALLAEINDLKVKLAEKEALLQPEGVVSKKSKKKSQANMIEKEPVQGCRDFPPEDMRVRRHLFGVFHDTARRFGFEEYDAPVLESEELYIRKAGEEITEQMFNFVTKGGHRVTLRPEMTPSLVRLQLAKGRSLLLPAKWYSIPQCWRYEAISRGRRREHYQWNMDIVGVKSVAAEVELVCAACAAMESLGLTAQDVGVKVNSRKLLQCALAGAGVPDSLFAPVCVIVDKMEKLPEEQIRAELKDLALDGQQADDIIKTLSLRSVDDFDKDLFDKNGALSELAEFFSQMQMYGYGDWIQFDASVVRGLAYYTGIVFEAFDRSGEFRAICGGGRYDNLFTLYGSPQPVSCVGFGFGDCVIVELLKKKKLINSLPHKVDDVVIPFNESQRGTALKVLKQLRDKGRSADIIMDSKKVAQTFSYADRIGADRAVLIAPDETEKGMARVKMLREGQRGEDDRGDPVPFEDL
UniProt I6X8D2, whole entry: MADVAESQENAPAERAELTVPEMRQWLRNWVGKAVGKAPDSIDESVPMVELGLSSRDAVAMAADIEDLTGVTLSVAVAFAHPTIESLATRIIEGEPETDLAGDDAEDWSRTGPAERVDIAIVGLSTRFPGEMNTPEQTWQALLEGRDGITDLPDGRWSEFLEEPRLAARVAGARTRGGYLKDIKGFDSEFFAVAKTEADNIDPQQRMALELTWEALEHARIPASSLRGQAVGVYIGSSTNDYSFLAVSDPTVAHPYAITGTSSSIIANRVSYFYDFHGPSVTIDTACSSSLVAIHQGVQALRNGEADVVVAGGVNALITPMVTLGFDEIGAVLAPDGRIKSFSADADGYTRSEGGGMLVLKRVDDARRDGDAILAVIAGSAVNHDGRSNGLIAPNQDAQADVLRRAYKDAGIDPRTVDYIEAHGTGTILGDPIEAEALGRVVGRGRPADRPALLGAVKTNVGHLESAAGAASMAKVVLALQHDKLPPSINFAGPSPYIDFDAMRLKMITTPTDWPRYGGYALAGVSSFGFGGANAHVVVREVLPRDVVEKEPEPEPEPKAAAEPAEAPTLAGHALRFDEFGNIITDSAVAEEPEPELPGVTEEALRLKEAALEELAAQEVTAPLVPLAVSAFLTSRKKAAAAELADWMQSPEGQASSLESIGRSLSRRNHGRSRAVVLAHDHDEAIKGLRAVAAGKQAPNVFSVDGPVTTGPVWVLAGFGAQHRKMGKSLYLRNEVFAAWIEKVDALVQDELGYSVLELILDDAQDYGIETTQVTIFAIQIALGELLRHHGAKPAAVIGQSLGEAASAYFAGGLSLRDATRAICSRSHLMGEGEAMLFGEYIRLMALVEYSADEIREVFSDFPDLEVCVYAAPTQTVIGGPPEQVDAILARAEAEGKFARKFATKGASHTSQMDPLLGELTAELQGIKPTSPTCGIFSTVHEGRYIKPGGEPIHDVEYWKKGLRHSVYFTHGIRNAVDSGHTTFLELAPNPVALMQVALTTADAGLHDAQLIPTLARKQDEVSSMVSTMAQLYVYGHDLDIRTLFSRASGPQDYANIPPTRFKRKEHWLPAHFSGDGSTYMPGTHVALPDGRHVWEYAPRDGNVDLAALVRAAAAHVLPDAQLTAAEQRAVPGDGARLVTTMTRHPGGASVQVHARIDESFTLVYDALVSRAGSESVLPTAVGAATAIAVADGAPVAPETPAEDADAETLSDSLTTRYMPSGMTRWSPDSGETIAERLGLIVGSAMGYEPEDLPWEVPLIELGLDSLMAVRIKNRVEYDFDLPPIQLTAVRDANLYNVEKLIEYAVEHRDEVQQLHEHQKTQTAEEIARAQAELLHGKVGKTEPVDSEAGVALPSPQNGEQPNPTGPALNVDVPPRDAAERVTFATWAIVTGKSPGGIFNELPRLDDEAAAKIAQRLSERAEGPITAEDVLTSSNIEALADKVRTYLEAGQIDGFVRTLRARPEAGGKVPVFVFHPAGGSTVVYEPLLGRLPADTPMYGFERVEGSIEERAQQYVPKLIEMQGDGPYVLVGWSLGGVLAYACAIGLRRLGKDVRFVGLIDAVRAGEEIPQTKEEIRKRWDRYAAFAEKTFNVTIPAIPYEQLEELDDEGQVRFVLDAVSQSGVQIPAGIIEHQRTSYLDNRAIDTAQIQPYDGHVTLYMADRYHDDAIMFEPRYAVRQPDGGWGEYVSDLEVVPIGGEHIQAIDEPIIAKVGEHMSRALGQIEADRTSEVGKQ

Measurements from “University of Dundee, Small-Polar-MMV Screening Library” (2021), ChEMBL document CHEMBL3988442.

Leishmania in macrophages: 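Cell assay of Leishmania donovani living inside macrophages; the read-out is not stated. Tested at 30 µM. Higher reads as stronger inhibition (inferred: compounds with an IC50 in retests scored well above the rest). Of about 69,000 compounds tested this way, about 1,000 (1.5%) reached 50% or more in at least one test.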
LiHisRS: 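Enzyme assay of histidyl-tRNA synthetase; the read-out is not stated. Target: Histidine-tRNA ligase, Leishmania infantum (UniProt A4I591). Compounds at 30 µM. Direction is inferred from retests: higher values go with stronger inhibition. The assay is labelled LdHisRS but filed under L. infantum. About 69,000 compounds were tested under these conditions; 0.6% (about 410) showed 50% or more at least once.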
Pks13 thioesterase: 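Polyketide synthase Pks13, Mycobacterium tuberculosis (UniProt I6X8D2). Enzyme assay of the thioesterase domain of polyketide synthase 13; the read-out is not stated. Compounds at 30 µM. Higher reads as stronger inhibition (inferred from which compounds were picked for retests). Size under these conditions: about 67,000 compounds, about 300 of them at 50% or above in at least one test.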

The filed quantity is “Percent Effect” (%). The controls that fix the scale are not given in the record; negative values are as filed. Compounds were drawn at random from those tested, without regard to their results. Two or more numbers in one place are separate tests of the same structure; such repeats can differ widely. A dash means the value is not listed here; it may have been measured.

O=C([C@H]1CCCN1)N1CC2(CCNCC2)c2cc(Cl)ccc21 read LiHisRS: 3.846%; Pks13 thioesterase: -34.4%. With CN(C)c1cc(C2CCCNC2)ccn1 (stereo not shown) the screen gave LiHisRS: 2.817%; Pks13 thioesterase: 12.01%. Result for CC(=O)NC(c1cc(F)ccc1F)C1CC1 (stereo not shown) was Leishmania in macrophages: 18.79%; LiHisRS: 28.57%; Pks13 thioesterase: -38.43%. O=C(NCCc1cc2nc(-c3ccncc3)ccn2n1)C1CC1 read Leishmania in macrophages: 22.92%; LiHisRS: 2.817%; Pks13 thioesterase: 15.19%. With COCc1ncc(CN2C[C@@H](C(=O)O)[C@H](C(C)C)C2)cn1 the screen gave Leishmania in macrophages: 34.65%; LiHisRS: 19.18%; Pks13 thioesterase: 0.06611%. CCOCC1CN(Cc2ccco2)Cc2nccn2C1.O=C(O)C(F)(F)F (stereo not shown) read Leishmania in macrophages: 6.32%. For CNc1ncc(-c2ccc(NC(=O)[C@@H]3CCCCN3)cc2)cn1 the result was Leishmania in macrophages: 12.7% and 5.358%; LiHisRS: 25.71%; Pks13 thioesterase: 14.83%. With O=C(c1scc2c1OCCO2)N1CCOC(Cc2cccc(F)c2)C1 (stereo not shown) the screen gave Leishmania in macrophages: 33.97%; LiHisRS: 8.197%; Pks13 thioesterase: 0.8069%.

Result for Cn1ccc(CN2CCCC(CNS(C)(=O)=O)C2)cc1=O (stereo not shown) was Leishmania in macrophages: 5.499%; LiHisRS: 27.4%; Pks13 thioesterase: -1.259%. Cc1ccc(CN2CCCn3cnc(COCC4CC4)c3C2)o1.O=C(O)C(F)(F)F read Leishmania in macrophages: 19.46%. Cn1cc(C(=O)Nc2ccc(CN3CCOCC3)cn2)cn1 gave Leishmania in macrophages: 36.05%; LiHisRS: 22.08%; Pks13 thioesterase: -26.11%. For O=C(CN1CCOC(Cn2cncn2)C1)NC(C1CC1)C1CC1 (stereo not shown) the result was Leishmania in macrophages: 6.936%; LiHisRS: 6.383%; Pks13 thioesterase: -14.48%. For Cc1ccc(C(C)(O)CNC(=O)c2sccc2OC(F)F)o1 (stereo not shown) the result was Leishmania in macrophages: 1.554%; LiHisRS: 14.29%; Pks13 thioesterase: -48.7%. For Cn1cc(CN2CCCC(CCc3ccc(F)c(F)c3)C2)cn1 (stereo not shown) the result was Leishmania in macrophages: 0.7637%; LiHisRS: 10.96%; Pks13 thioesterase: -17.84%. For c1ccc(C2=NOC3(CCN(Cc4c[nH]c5ccccc45)CC3)C2)cc1 the result was Leishmania in macrophages: 96.36%; LiHisRS: 17.93%; Pks13 thioesterase: -19.16%. CNC(=O)NC(C)c1nc(-c2ccccc2)c[nH]1 (stereo not shown) read Leishmania in macrophages: 15.92%; LiHisRS: 16.81%; Pks13 thioesterase: -7.013%.

With CC(=O)N[C@@H]1CN(C(=O)c2cnccn2)C[C@H]1c1ccc(C)cc1 the screen gave Leishmania in macrophages: 18.11%; LiHisRS: 13.33%; Pks13 thioesterase: -37.67%. CC(C)[C@H]1CN(C(=O)CO)C[C@@H]1N(C)C read Leishmania in macrophages: 11.95%; LiHisRS: 2.797%; Pks13 thioesterase: -13.24%. Result for CCc1nn(C)c(Cl)c1CN(CC)Cc1cnn(CC)c1 was Leishmania in macrophages: 3.107%; LiHisRS: 15.93%; Pks13 thioesterase: -14.91%. Cn1cc(NC(=O)NCc2ccoc2)ccc1=O read Leishmania in macrophages: 24.33%; LiHisRS: 120%; Pks13 thioesterase: -34.71%. CN(C)C(=O)c1ccc(-c2cccc3c2CCNC3)o1 gave Leishmania in macrophages: -1.188%; LiHisRS: 11.48%; Pks13 thioesterase: -4.437%. Result for Cc1nnc([C@H]2C[C@@H]3CCN(Cc4ccc(C)o4)C[C@H]3O2)[nH]1 was LiHisRS: 14.52%; Pks13 thioesterase: -6.891%.

The first 2 entries again:

Compound	Leishmania in macrophages	LiHisRS	Pks13 thioesterase
O=C([C@H]1CCCN1)N1CC2(CCNCC2)c2cc(Cl)ccc21	-	3.846	-34.4
CN(C)c1cc(C2CCCNC2)ccn1 (stereo not shown)	-	2.817	12.01